Results taken from publication PMC11434081.
No constants are given. Whether binding was seen depends on the method and setting.

Molecular target: T1, zipper motif^mut (hnRNP A1 aa 259–264, D262V) (human)
T1 chain: SYNVFG
Experiment: thioflavin T fluorescence (fibrillation assay); self-association of the peptide into cross-beta fibrils; 40 µM peptide, 13 µM ThT, 0.5 mM DTT, 40 mM HEPES-KOH pH 7.4, 150 mM KCl or NaCl (methods), room temperature (RGG-PLD^mut-NLS also at 37 °C), at least 3 h; both purified
Details: remark: other sources report otherwise

B1: zipper motif^mut (hnRNP A1 aa 259–264, D262V) (peptide)
peptide: SYNVFG
binding: no binding (tested: 40 µM peptide)
